From PubChem BioAssay AID1487 (National Center for Advancing Translational Sciences (NCATS), 2009)
This is one part of the list. Further columns of the screen follow, without active or inactive calls. Compounds called inactive in the main read-out are mostly missing here. Words in brackets tell the shape of the fitted curve; partial curves, single points and poor fits give uncertain potencies.

Experiment: qHTS Assay for Modulators of Lamin A Splicing
Conditions: HeLa LMNA splicing GFP/RFP minigene ratio, 48 h
Outline: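 Read-out is the ratio of GFP to DsRed2 object intensity, acquired by 488 nm laser-scanning cytometry on HeLa lamin A-EGFP minigene reporter cells. Compound incubation 48 hrs at 37 °C in Opti-MEM with 2% FBS; DMSO 0.5% final.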

[1] = measured here: RFP viability control channel
[2] = measured here: GFP splicing reporter channel

SMILES	AC50 [1]	AC50 [2]
CC(/C=N/NC(=O)Cn1cnc2ccccc21)=C\c1ccccc1	22.4 µM [rising, single point]	–
COc1cccc(Cn2c(CNC(=O)c3cc([N+](=O)[O-])ccc3Cl)nc3cccnc32)c1	–	50.1 µM [falling, partial curve]
CCNC(=O)C(Cc1ccccc1)NC(=O)OCc1ccccc1 (stereo unspecified)	–	0.0708 µM [rising, partial curve, poor fit]
O=C(Cc1c(F)cccc1Cl)Nc1ncc([N+](=O)[O-])s1	4.47 µM [falling, partial curve, poor fit]	5.01 µM [falling, partial curve, poor fit]
CC(C)=CC(=O)Nc1nnc(-c2ccccc2C)s1	0.00447 µM [rising, full curve, poor fit]	–
Cc1nn(-c2ccc(F)cc2)c(C)c1NS(=O)(=O)c1ccc(Cl)cc1	4.47 µM [falling, single point]	28.2 µM [falling, single point]
CCOC(=O)CN1C(=O)N[C@@H](c2ccccc2)[C@H](C(C)=O)[C@H]1C	–	0.891 µM [rising, single point]
COC(=O)/C(=C\C=C\c1ccccc1)NC(=O)c1ccccc1	0.141 µM [falling, single point]	–
Cc1ccc(/C=N/Nc2ncc(Cl)cc2Cl)s1	14.1 µM [rising, single point]	12.6 µM [rising, single point]
COC(=O)c1cccc(-c2ccc(/C=N/N3C(=O)C4C5C=CC(C6CC56)C4C3=O)o2)c1 (stereo unspecified)	35.5 µM [rising, single point]	31.6 µM [rising, single point]
Cc1cccc(NC(=S)NNC(=O)c2ccc(O)cc2O)c1C	–	20 µM [falling, partial curve, poor fit]
CCOC(=O)c1cccnc1	0.000794 µM [rising, full curve, poor fit]	35.5 µM [falling, single point]
Nc1ccc(N2CCN(c3ccc(F)cc3)CC2)cc1	–	3.98 µM [falling, partial curve]
CN(C)CCOC(=O)COc1ccc(Cl)cc1	–	0.355 µM [falling, partial curve, poor fit]
CCOC(=O)c1sc2ccc(S(=O)(=O)N3CC(C)CC(C)C3)cc2c1N (stereo unspecified)	–	0.282 µM [rising, full curve, poor fit]
CC(C)(C)C1=CC(=O)C(N2CCOCC2)=CC1=O	17.8 µM [rising, single point]	–
CN1CCc2c(sc3c2C(=O)NC(c2cn(Cc4ccccc4)c4ccccc24)N3)C1 (stereo unspecified)	12.6 µM [rising, single point]	–
Cc1c(C(=O)Oc2cccc3cccnc23)cccc1[N+](=O)[O-]	22.4 µM [falling, partial curve]	35.5 µM [falling, partial curve]

Some of the entries so far, with bars between the fields.
SMILES | AC50 [1] | AC50 [2]
CC(/C=N/NC(=O)Cn1cnc2ccccc21)=C\c1ccccc1 | 22.4 µM [rising, single point] | –
COc1cccc(Cn2c(CNC(=O)c3cc([N+](=O)[O-])ccc3Cl)nc3cccnc32)c1 | – | 50.1 µM [falling, partial curve]
CCNC(=O)C(Cc1ccccc1)NC(=O)OCc1ccccc1 (stereo unspecified) | – | 0.0708 µM [rising, partial curve, poor fit]
O=C(Cc1c(F)cccc1Cl)Nc1ncc([N+](=O)[O-])s1 | 4.47 µM [falling, partial curve, poor fit] | 5.01 µM [falling, partial curve, poor fit]
CC(C)=CC(=O)Nc1nnc(-c2ccccc2C)s1 | 0.00447 µM [rising, full curve, poor fit] | –
Cc1nn(-c2ccc(F)cc2)c(C)c1NS(=O)(=O)c1ccc(Cl)cc1 | 4.47 µM [falling, single point] | 28.2 µM [falling, single point]
CCOC(=O)CN1C(=O)N[C@@H](c2ccccc2)[C@H](C(C)=O)[C@H]1C | – | 0.891 µM [rising, single point]
COC(=O)/C(=C\C=C\c1ccccc1)NC(=O)c1ccccc1 | 0.141 µM [falling, single point] | –
Cc1ccc(/C=N/Nc2ncc(Cl)cc2Cl)s1 | 14.1 µM [rising, single point] | 12.6 µM [rising, single point]

Later entries:

SMILES	AC50 [1]	AC50 [2]
CN(C)c1ccc(-c2ccc3ncnc(N(C)C)c3c2)cc1	0.562 µM [falling, full curve]	0.631 µM [falling, full curve]
O=C(Nc1cc(C(F)(F)F)ccc1Cl)c1cc(-c2ccc3c(c2)OCCO3)on1	0.0126 µM [falling, full curve, poor fit]	–
COc1ccc(NC(=O)CCCCn2c(=O)[nH]c3ccccc3c2=O)cc1	0.112 µM [falling, full curve, poor fit]	0.126 µM [falling, full curve, poor fit]
Cc1ccc(NC(=S)NNC(=O)CSc2nc3ccccc3c(=O)n2-c2ccc(C)cc2)cc1	35.5 µM [rising, single point]	–
Cc1cc(/C=N\NC(=O)c2cccs2)c(C)n1-c1ccc2ncccc2c1	–	35.5 µM [falling, single point]
O=C(NNc1ccccn1)C(=O)NNS(=O)(=O)c1ccc(Cl)cc1	–	22.4 µM [falling, partial curve, poor fit]
C=CCOc1c(Cl)cc(C2NC(=O)NC(C)=C2C(=O)OC)cc1Cl (stereo unspecified)	35.5 µM [rising, single point]	–
Cc1[nH]c2ccccc2c1SCCNC(=O)c1ccc(S(=O)(=O)N2CCCC2)cc1	25.1 µM [rising, partial curve]	12.6 µM [rising, partial curve, poor fit]
CCN(c1ccccc1)S(=O)(=O)c1ccc(C(C(=O)OC)C(=O)OC)c([N+](=O)[O-])c1	–	6.31 µM [rising, single point]
COc1ccccc1-n1cnc2cc(NCc3cccs3)ccc21	–	12.6 µM [falling, single point]
O=C(Cc1ccccc1)NCCc1csc2nc(-c3ccc(Cl)cc3)nn12	–	0.794 µM [rising, partial curve, poor fit]
CC(=O)N/C(=C/c1ccc(OS(=O)(=O)c2ccc(C)cc2)cc1)C(=O)NCCO	3.55 µM [falling, full curve, poor fit]	–
CCOC(=O)c1c(NC(=O)CSc2nnc(C)s2)sc2c1CCC(CC)C2 (stereo unspecified)	35.5 µM [rising, single point]	–
Cc1cccc(Oc2coc3cc(OC(=O)c4cncc(Br)c4)ccc3c2=O)c1	–	0.0501 µM [rising, full curve, poor fit]
COC(=O)c1ccc(CSc2nc3c([nH]c4ccccc43)c(=O)n2-c2ccc(OC)cc2)o1	8.91 µM [falling, partial curve]	3.16 µM [falling, full curve]
Cc1ccc(S(=O)(=O)NC2c3cccc4cccc(c34)C2Sc2nncn2C)cc1 (stereo unspecified)	10 µM [rising, partial curve, poor fit]	–
O=C(c1ccc(S(=O)(=O)N2CCCCCC2)cc1)N1CCC(CN2C(=O)c3cccc4cccc(c34)C2=O)CC1	7.08 µM [falling, partial curve]	–
O=C(c1cc(-c2ccncc2)nc2ccc(Cl)cc12)N1CCN(Cc2ccc3c(c2)OCO3)CC1	–	12.6 µM [falling, partial curve, poor fit]
